Test system: protein kinases
Assay: DSF screen, observations over the kinase panel
Format: binding
Details: over all kinases screened, 10 µM inhibitor

CCCCCCCCCCCCCCCCn1cc[n+](Cc2ccccc2)c1C.[I-] [eEF-2 Kinase Inhibitor, NH125] was tested, and the “Behaviour in the DSF screen” value was “only produced negative Tm shifts”.

In the case of O=C1NC(=O)c2c1c1c3ccccc3n3c1c1c2c2ccccc2n1C1CCC3O1 [SB 218078], the “Behaviour in the DSF screen” value is reported as “interfere with the fluorescence from the dye”.

From publication PMC4051630, “A Comparison of Protein Kinases Inhibitor Screening Methods Using Both Enzymatic Activity and Binding Affinity Determination” (PLoS ONE, 2014)
